According to PMC8576330:
No constants are given. Whether binding was seen depends on the method and setting. In cells and extracts the contact can be indirect. Some entries that bind do so weakly or less than the wild type.

Biological target: Yes-Associated Protein (YAP), endogenous (human (endogenous in HOS, MG63, G292, K-HOS)), P46937
Assay: proximity ligation; in situ Duolink PLA on fixed osteosarcoma cells (HOS, MG63, G292; mock-, YAPS94A- and YAPS127A-stably transfected K-HOS) with antibodies against YAP and Smad3, in the presence or absence of TGF-β1 (5 ng/ml, 45 min in the methods, 1 h in the legend)
Settings: remark: other sources report otherwise

B1: Smad3, endogenous, P84022 1-425 (protein)
chain: MSSILPFTPPIVKRLLGWKKGEQNGQEEKWCEKAVKSLVKKLKKTGQLDELEKAITTQNVNTKCITIPRSLDGRLQVSHRKGLPHVIYCRLWRWPDLHSHHELRAMELCEFAFNMKKDEVCVNPYHYQRVETPVLPPVLVPRHTEIPAEFPPLDDYSHSIPENTNFPAGIEPQSNIPETPPPGYLSEDGETSDHQMNHSMDAGSPNLSPNPMSPAHNNLDLQPVTYCEPAFWCSISYYELNQRVGETFHASQPSMTVDGFTDPSNSERFCLGLLSNVNRNAAVELTRRHIGRGVRLYYIGGEVFAECLSDSAIFVQSPNCNQRYGWHPATVCKIPPGCNLKIFNNQEFAALLAQSVNQGFEAVYQLTRMCTIRMSFVKGWGAEYRRQTVTSTPCWIELHLNGPLQWLDKVLTQMGSPSIRCSSVS
Question: How did the binding turn out when B1 was run?
Answer: binds
